# According to the supplement of paper PMC10735217:
# Structures can show the parent of a compound that is named as a salt. Some of the results follow. Repeats in this data set agree poorly, so a single value says little.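 The human kidney-derived cells carry a stably integrated construct of eight TEAD-binding elements driving luciferase, read by luminescence in a drug-repurposing library screen. A compound counts as a hit when its signal is more than five robust Z scores above the plate mean.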
# System: HEK293A TEAD-LUC reporter
# Test: TEAD-luciferase reporter activity (YAP activation), robust Z score vs plate; higher = stronger YAP/TEAD activation
# Settings: 24 h
SMILES,TEAD-luciferase reporter activity (compound concentration: 200 nM),TEAD-luciferase reporter activity (compound concentration: 2 uM),TEAD-luciferase reporter activity (compound concentration: 10 uM)
O=C(NCc1cc(C(F)(F)F)ccc1F)[C@](O)(c1ccccc1)C(F)(F)F,inactive: 1.66,inactive: -0.14,inactive: 1.75
CC(=O)NC/C=C(C)/C=C/C=C(C)/C=C/C1=C(C)CCCC1(C)C,inactive: -1.47,inactive: -0.485,inactive: -0.107
CCCCc1cc2c(=O)c(C(=O)OC)c[nH]c2cc1OCc1ccccc1 [Nequinate],inactive: -0.265,inactive: -1.18,inactive: 0.379
O=C(O)c1ccccn1 [Picolinic acid],inactive: -0.964,inactive: -0.692,inactive: -1.27
O=C(NCCC1CCN(CC2=Cc3ccccc3OC2)CC1)Nc1ccccc1,inactive: -1.33,inactive: 0.289,inactive: 0.706
CC(CCc1ccc2c(c1)OCO2)NCC(O)c1ccc(O)c(C(N)=O)c1 (centres undefined) [Medroxalol],inactive: -0.703,inactive: -0.927,inactive: 1.13
O=C(/C=C/c1ccc(O)cc1)c1ccc(O)cc1O,inactive: -1.48,inactive: -0.877,inactive: -0.44
CC1(C)CC[C@]2(C(=O)O)CC[C@]3(C)[C@H](C(=O)C=C4[C@@]5(C)C=C(C#N)C(=O)C(C)(C)[C@@H]5CC[C@]43C)[C@@H]2C1 [bardoxolone],inactive: 0.728,inactive: -2.91,inactive: -3.94
C[C@@H]1CN(Cc2ccc(F)cc2)[C@@H](C)CN1C(=O)c1cc2c(C(=O)C(=O)N(C)C)cn(C)c2cc1Cl [talmapimod],inactive: -3.66,inactive: -1.88,inactive: -1.09
C=CCN1CCCC1CNC(=O)c1cc(S(=O)(=O)NC)c(N)cc1OC (centres undefined),inactive: 0.711,inactive: -0.395,inactive: -0.588
Cc1ccc2c(c1)nc1cc(Nc3ccc(Cl)cc3)c(=N)cc-1n2-c1ccc(Cl)cc1,inactive: 4.11,inactive: 0.459,inactive: 2.49
O=c1[nH]c(=O)n(C2CC(O)C(COP(=O)(O)O)O2)cc1F (centres undefined),inactive: -0.332,inactive: -1.27,inactive: -1.54
COc1cc(C(=O)NCc2ccc(OCCN(C)C)cc2)cc(OC)c1OC [Trimethobenzamide hydrochloride],inactive: -0.0391,inactive: -0.576,inactive: 1.38
Cc1ccc(-n2nc(C(C)(C)C)cc2NC(=O)Nc2ccc(OCCN3CCOCC3)c3ccccc23)cc1 [Doramapimod],inactive: -1.17,inactive: -0.936,inactive: -0.422
CS(=O)(=O)c1ccc(-c2cc(Br)sc2-c2ccc(F)cc2)cc1,inactive: 2.52,inactive: -1.1,inactive: 0.56
C=CC(C)(O)CCC=C(C)CCC=C(C)C (centres undefined),inactive: -0.595,inactive: 0.00145,inactive: -1.06
C=Cc1cc(O)cc2nc(-c3ccc(O)c(F)c3)oc12 [prinaberel],inactive: -1.26,inactive: -1.21,inactive: -0.654
OC(CNCC(O)C1CCc2cc(F)ccc2O1)C1CCc2cc(F)ccc2O1 (centres undefined) [Nebivolol HCl],inactive: -1.16,–,inactive: 3.67
OC(CNCC(O)C1CCc2cc(F)ccc2O1)C1CCc2cc(F)ccc2O1 (centres undefined) [nebivolol hydrochloride],–,inactive: 0.868,–
NC(=O)/N=N/C(N)=O,–,inactive: -0.593,–

# Fetched one by one from the entries so far, 4 records:
SMILES,TEAD-luciferase reporter activity (compound concentration: 200 nM),TEAD-luciferase reporter activity (compound concentration: 2 uM),TEAD-luciferase reporter activity (compound concentration: 10 uM)
C=Cc1cc(O)cc2nc(-c3ccc(O)c(F)c3)oc12 [prinaberel],inactive: -1.26,inactive: -1.21,inactive: -0.654
C[C@@H]1CN(Cc2ccc(F)cc2)[C@@H](C)CN1C(=O)c1cc2c(C(=O)C(=O)N(C)C)cn(C)c2cc1Cl [talmapimod],inactive: -3.66,inactive: -1.88,inactive: -1.09
O=C(O)c1ccccn1 [Picolinic acid],inactive: -0.964,inactive: -0.692,inactive: -1.27
O=C(NCc1cc(C(F)(F)F)ccc1F)[C@](O)(c1ccccc1)C(F)(F)F,inactive: 1.66,inactive: -0.14,inactive: 1.75

# (list continues)

SMILES,TEAD-luciferase reporter activity (compound concentration: 200 nM),TEAD-luciferase reporter activity (compound concentration: 2 uM),TEAD-luciferase reporter activity (compound concentration: 10 uM)
NC(=O)/N=N/C(N)=O [azodicarbonamide],inactive: 0.0131,inactive: 0.0973,inactive: 0.234
COc1cc2c(cc1NS(=O)(=O)c1ccc(-c3ccc(Cl)s3)cc1)CCN(C)CC2,inactive: -0.735,inactive: -0.442,inactive: 3.95
COP(=O)(OC)OC(c1ccc(Cl)cc1)P(=O)(OC)OC (centres undefined) [Mifobate],inactive: -0.521,inactive: -0.478,inactive: 1.29
CCCCCCCCc1ccc2c(c1)C(=O)c1nc3ccncc3c(=O)n1-2,inactive: -0.905,inactive: -0.121,inactive: 1.34
CN1C(=O)C(N2CCCCC2)S/C1=C\C(=O)O (centres undefined) [ozoli],inactive: 0.427,inactive: 0.654,inactive: -1.03
O=C(O)c1ccc2c(c1)nc(Nc1cccc(Cl)c1)c1ccncc12 [Silmitasertib],–,inactive: -3.25,–
O=C(O)c1ccc2c(c1)nc(Nc1cccc(Cl)c1)c1ccncc12 [CX-4945 (Silmitasertib)],inactive: -0.0735,–,inactive: -0.585
O=C(NC1CCN(c2nc3ncccc3o2)CC1)C1CCCC1,inactive: 1.67,–,inactive: 0.433
C[C@H](Cn1cnc2c(N)ncnc21)OCP(=O)(O)O [Tenofovir (TFV)],inactive: -0.23,–,inactive: -1.36
C[C@H](Cn1cnc2c(N)ncnc21)OCP(=O)(O)O [tenofovir (TFV)],–,inactive: 3.38,–
COc1ccccc1OCCNCC(O)COc1cccc2[nH]nnc12 (centres undefined) [tribendilol],inactive: -0.647,inactive: 0.471,inactive: -0.613
CN1[C@@H]2CC[C@H]1C[C@@H](NC(=O)NC(=O)c1ccccc1OCC1CC1)C2,inactive: 1.06,inactive: -1.44,inactive: -1.15
COc1cc2c(cc1C(F)(F)F)N(C(=O)Nc1cc(F)cc(-c3cccnc3)c1)CC2,inactive: 0.737,inactive: 0.233,inactive: 1.8
O=C(O)CC1C2CCCC1CN(Cc1ccc3c(c1)Nc1nccnc1S3)C2 (centres undefined),inactive: 2.42,inactive: -0.197,inactive: 0.046
Cc1cc(Nc2cc(N3CCN(C)CC3)nc(/C=C/c3ccccc3)n2)n[nH]1,inactive: -0.333,inactive: -2.61,inactive: -2.76
CC(C)(C)c1cc(NC(=O)NCc2ccccc2Sc2ccc3nnc(-c4ccccc4SCCO)n3c2)n(-c2ccc(O)c(Cl)c2)n1,inactive: -1.81,inactive: -1.26,inactive: 0.179
N#Cc1ccc(Cn2cncc2CN2CCN(c3cccc(Cl)c3)C(=O)C2)cc1,inactive: -2.31,inactive: -1.48,inactive: -0.0456
Cc1cc(Cn2nnc3c(-c4ccco4)nc(N)nc32)ccc1N [Vipadenant],inactive: -0.0334,inactive: -0.579,inactive: 0.713
C[C@]12C=CC(=O)C=C1CC[C@@H]1[C@@H]2[C@@H](O)C[C@@]2(C)[C@H]1CC[C@]2(O)C(=O)COP(=O)([O-])[O-] [prednisolone sodium phosphate],inactive: -1.55,inactive: 0.144,inactive: 3.01
CNCc1ccc(NC(=O)c2c[nH]c3c2C(=O)CCC3)cc1,inactive: 1.06,inactive: -1.42,inactive: -0.855

SMILES,TEAD-luciferase reporter activity (compound concentration: 200 nM),TEAD-luciferase reporter activity (compound concentration: 2 uM),TEAD-luciferase reporter activity (compound concentration: 10 uM)
CN(C)CCC(c1ccc(Br)cc1)c1ccccn1 (centres undefined) [Brompheniramine maleate],–,inactive: 0.335,–
CN(C)CCC(c1ccc(Br)cc1)c1ccccn1 (centres undefined),inactive: -2.12,–,inactive: -0.0321
CC(C)(C)OC(=O)N[C@@H](Cc1ccccc1)[C@H](O)CNC[C@@H](O)[C@H](Cc1ccc(OCC(=O)N2CCOCC2)cc1)NC(=O)OC(C)(C)C,active: 5.9,inactive: 0.389,inactive: 0.127
CC(CC(c1ccccc1)c1ccccc1)N1CCCC1 (centres undefined),inactive: 0.818,inactive: -0.897,inactive: -1.01
Cc1cn(C2CC(N=[N+]=[N-])C(CO)O2)c(=O)nc1N (centres undefined),inactive: -0.41,inactive: 2.42,inactive: -0.225
COc1cc(C(=O)N2CC(F)(F)C[C@H]2C(=O)N2CCC[C@H]2C#N)cc(OC)c1OCc1ccccc1,inactive: 0.245,–,inactive: -0.236
CC[N+](C)(CC)CCSC1=Nc2ccccc2N=C(c2ccc(Sc3ccccc3)cc2)C1 [Tibezonium iodide],inactive: 2.14,inactive: 0.439,inactive: -0.413
CNCCCCOc1ccccc1Cc1ccccc1 [Bifemelane],inactive: -1.91,–,inactive: -1.2
CNCCCCOc1ccccc1Cc1ccccc1 [bifemelane],–,inactive: -1.15,–
CCOC(=O)CCC(N)=O,inactive: -1.98,inactive: -2.14,inactive: -0.185
O=S(=O)(O)c1ccc2ccccc2c1,inactive: 0.799,inactive: -0.421,inactive: 0.304
CN(c1ccc(N2C[C@H](CN)OC2=O)cc1F)S(C)(=O)=O,inactive: -0.955,inactive: 0.126,inactive: -0.817
CN(Cc1ccc(C(C)(C)C)cc1)Cc1cccc2ccccc12 [butenafine],–,inactive: 0.346,–
CN(Cc1ccc(C(C)(C)C)cc1)Cc1cccc2ccccc12 [Butenafine],inactive: 3.11,–,inactive: 1.71
CCN(CC)CCNC(=O)c1cc(Cl)c(N)cc1OC(C)C(C)=O (centres undefined) [Batanopride hydrochloride],inactive: -1.59,inactive: 1.29,inactive: -0.41
CCCCN(CCCC)C(C(N)=O)c1ccc(OC)cc1 (centres undefined) [Ambucetamide],inactive: -0.582,–,inactive: 4.4
"O=C(O)CCC(=O)O [succinic acid, Vecta]",inactive: 1.99,–,inactive: -0.902
O=C(O)CCC(=O)O [succinic acid],–,inactive: -2.09,–
CCN(CC)CCNC(=O)c1ccccc1O,inactive: -1.83,inactive: -1.22,inactive: -1.45
CCOc1ccc2cc(C(=O)Nc3nc4ccccc4[nH]3)[nH]c2c1,inactive: -1.18,inactive: 0.607,inactive: 0.871
